Data published in article PMC11884560.
No constants are given. Whether binding was seen depends on the method and setting. In cells and extracts the contact can be indirect. Some results given as binding are weak or reduced against the parent protein; the word gives no strength. Tags and fused reporters may be left off the sequences shown.

Protein sequences, listed by entry. Tags and fused reporters are not part of them. Residues count along the entry.
UniProt Q14126, residues 50-1118: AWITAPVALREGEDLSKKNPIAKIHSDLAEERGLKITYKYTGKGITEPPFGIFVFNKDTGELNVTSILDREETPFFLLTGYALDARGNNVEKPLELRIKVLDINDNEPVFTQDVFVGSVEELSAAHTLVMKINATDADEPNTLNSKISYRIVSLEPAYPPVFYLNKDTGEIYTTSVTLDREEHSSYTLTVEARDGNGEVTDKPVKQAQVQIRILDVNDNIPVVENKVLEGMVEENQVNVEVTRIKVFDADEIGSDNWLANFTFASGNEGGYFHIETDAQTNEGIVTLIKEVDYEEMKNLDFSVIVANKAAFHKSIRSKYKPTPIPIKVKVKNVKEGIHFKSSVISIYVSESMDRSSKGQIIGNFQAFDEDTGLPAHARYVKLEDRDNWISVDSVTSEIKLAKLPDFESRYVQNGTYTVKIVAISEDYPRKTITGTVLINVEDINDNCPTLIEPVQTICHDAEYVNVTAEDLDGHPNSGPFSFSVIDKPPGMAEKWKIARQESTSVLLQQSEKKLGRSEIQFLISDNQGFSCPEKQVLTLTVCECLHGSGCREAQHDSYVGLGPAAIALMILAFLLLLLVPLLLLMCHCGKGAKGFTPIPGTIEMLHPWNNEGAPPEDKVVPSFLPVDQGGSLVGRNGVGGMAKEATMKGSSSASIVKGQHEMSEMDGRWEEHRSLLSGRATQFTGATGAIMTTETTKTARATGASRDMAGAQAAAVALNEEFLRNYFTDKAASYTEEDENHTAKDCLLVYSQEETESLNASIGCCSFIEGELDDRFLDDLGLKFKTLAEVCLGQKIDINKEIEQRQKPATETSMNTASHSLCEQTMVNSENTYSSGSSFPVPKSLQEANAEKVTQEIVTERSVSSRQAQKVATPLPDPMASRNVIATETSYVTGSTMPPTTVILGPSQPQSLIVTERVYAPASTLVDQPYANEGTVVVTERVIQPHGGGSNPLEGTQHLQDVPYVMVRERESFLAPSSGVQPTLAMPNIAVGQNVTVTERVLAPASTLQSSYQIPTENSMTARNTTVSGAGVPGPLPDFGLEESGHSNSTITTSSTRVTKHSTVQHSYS

Biological target: T1, Siglec‐9‐Fc (human) (UniProt Q9Y336)
T1 sequence: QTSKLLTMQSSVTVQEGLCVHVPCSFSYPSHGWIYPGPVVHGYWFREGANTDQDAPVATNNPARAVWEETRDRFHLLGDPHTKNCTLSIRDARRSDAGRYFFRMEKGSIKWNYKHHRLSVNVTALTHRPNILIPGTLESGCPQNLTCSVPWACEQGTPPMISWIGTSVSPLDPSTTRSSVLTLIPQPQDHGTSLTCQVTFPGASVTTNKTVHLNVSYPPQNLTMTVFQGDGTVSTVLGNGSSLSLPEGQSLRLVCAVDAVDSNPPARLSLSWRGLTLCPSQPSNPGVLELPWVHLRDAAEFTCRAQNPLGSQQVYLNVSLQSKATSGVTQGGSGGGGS
Assay: pull-down; purified S9Fc, mS9Fc or Siglec‐7 as bait; lysate of HEK293T cells overexpressing full‐length DSG2 or DSG2‐5Q, also with tunicamycin or neuraminidase treatment; western blot; only the target purified

For “Desmoglein 2, full length, overexpressed in HEK293T (from UniProt Q14126 50-1118)”, the binding was “binds”.
